In US9371342B2, “Isoprene oligomer, polyisoprene, processes for producing these materials, rubber composition, and pneumatic tire” (priority 2010, dated 2016):
At least one compound was matched to its structure with a doubt left.

Amino acid sequences for entries named in this document (tags omitted). A change or cut given only in a name is not applied to a line headed by its entry.
UniProt Q08291: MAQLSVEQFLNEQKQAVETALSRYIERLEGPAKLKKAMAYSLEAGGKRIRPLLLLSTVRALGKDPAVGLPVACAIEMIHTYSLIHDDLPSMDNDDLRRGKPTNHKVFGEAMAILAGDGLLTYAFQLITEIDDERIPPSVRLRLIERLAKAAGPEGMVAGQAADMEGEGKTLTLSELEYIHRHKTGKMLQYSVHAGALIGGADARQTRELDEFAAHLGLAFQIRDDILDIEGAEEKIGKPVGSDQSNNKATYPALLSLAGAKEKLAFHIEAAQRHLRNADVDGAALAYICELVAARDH
UniProt P39464: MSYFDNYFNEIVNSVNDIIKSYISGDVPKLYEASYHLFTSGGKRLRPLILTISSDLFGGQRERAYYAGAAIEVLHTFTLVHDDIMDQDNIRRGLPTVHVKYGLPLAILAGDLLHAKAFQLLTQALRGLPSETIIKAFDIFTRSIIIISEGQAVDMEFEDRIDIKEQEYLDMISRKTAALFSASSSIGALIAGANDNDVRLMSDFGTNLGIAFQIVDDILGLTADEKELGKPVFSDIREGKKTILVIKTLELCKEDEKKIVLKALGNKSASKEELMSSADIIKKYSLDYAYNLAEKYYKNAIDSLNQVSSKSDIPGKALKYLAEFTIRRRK
UniProt O82827, whole entry N31A: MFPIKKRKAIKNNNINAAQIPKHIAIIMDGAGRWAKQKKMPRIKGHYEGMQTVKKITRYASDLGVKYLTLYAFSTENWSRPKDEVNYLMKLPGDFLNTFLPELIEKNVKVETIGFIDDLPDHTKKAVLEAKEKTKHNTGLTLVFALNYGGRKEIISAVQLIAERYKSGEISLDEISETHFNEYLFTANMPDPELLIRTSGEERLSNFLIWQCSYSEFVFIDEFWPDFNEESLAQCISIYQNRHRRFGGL
UniProt O82827, whole entry N77A: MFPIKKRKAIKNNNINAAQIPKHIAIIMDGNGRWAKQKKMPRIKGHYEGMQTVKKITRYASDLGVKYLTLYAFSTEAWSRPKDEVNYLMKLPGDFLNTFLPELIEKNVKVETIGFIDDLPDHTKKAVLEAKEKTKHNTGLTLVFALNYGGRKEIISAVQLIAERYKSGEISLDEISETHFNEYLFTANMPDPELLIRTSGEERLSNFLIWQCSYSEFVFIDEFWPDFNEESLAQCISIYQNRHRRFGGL
UniProt O82827, whole entry L91N: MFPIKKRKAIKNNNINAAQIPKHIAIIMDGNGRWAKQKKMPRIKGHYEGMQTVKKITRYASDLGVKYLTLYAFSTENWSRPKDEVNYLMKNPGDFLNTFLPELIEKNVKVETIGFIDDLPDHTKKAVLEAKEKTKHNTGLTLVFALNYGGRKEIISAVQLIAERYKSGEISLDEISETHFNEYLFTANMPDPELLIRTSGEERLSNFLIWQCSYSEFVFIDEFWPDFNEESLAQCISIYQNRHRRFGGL
UniProt O82827, whole entry L91D: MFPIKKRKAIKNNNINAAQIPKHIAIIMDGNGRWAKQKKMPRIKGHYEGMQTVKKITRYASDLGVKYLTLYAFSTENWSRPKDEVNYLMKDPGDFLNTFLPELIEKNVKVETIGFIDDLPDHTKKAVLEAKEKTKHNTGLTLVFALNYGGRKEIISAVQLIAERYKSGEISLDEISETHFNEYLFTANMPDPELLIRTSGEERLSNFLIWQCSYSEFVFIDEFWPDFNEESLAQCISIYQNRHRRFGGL
UniProt O82827, whole entry N77Q: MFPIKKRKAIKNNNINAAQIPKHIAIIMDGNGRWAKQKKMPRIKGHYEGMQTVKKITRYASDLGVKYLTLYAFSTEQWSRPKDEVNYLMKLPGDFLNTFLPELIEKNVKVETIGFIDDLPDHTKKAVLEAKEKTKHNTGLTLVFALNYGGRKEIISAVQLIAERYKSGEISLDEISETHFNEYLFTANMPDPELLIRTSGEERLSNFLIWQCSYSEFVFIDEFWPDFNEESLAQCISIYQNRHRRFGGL
UniProt O82827, whole entry L91K: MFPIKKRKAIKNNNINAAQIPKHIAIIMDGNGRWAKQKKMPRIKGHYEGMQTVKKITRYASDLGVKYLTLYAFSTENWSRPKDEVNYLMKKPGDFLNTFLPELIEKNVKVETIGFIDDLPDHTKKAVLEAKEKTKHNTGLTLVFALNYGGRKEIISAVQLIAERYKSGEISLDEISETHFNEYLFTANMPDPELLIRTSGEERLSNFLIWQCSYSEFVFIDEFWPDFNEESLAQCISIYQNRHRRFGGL

Legend:
[1] = target: T1, Bacillus stearothermophilus-derived farnesyl diphosphate synthase (Geobacillus stearothermophilus, UniProt Q08291); experiment: Relative activity of farnesyl diphosphate synthase on initiating substrates; format: biochemical; settings: activity of the enzyme on geranyl diphosphate as 100; 12.5 μM initiating substrate, pH 8.5, 1 hour, 55° C.
T1 construct: made in house; host or cells: E. coli BL21 (DE3)
Description: Reaction was performed under conditions shown below using the obtained Bacillus stearothermophilus-derived farnesyl diphosphate synthase and each of the initiating substrates 1 to 4, the compound represented by the formula (F), the compound represented by the formula (I), the compound represented by the formula (QO), and geranyl diphosphate (GPP) whose structure is shown below. The results were indicated in Table 11 by the relative activity of the enzyme on the initiating substrates 1 to 4, the compound represented by the formula (F), the compound represented by the formula (I), and the compound represented by the formula (Q) with the activity of the enzyme on geranyl diphosphate as 100.
(§1) After the reaction, liquid scintillation counting and TLC quantification were performed to measure the activity of the enzyme on each initiating substrate.

[2] = target: T2, Sulfolobus acidocaldarius-derived geranylgeranyl diphosphate synthase (Sulfolobus acidocaldarius, UniProt P39464); experiment: Relative activity of geranylgeranyl diphosphate synthase on initiating substrates; format: biochemical; settings: 12.5 μM initiating substrate, pH 5.8, 1 hour, 55° C.
T2 construct: made in house; host or cells: E. coli BL21 (DE3)
Description: Likewise, reaction was performed under conditions shown below using Sulfolobus acidocaldarius-derived geranylgeranyl diphosphate synthase and each of the initiating substrates 1 to 4, the compound represented by the formula (B), the compound represented by the formula (C), the compound represented by the formula (G), the compound represented by the formula (K), the compound represented by the formula (F), the compound represented by the formula (I), the compound represented by the formula (Q), farnesyl diphosphate (FPP), and geranyl diphosphate (GPP). The results were indicated in Tables 12 and 13 by the relative activity of the enzyme on the initiating substrates 1 to 4, the compound represented by the formula (B), the compound represented by the formula (C), the compound represented by the formula (G), the compound represented by the formula (K), the compound represented by the formula (F), the compound represented by the formula (I), and the compound represented by the formula (QO) with the activity of the enzyme on farnesyl diphosphate or geranyl diphosphate as 100.
as §1

[3] = target: T3, Micrococcus luteus B-P 26-derived undecaprenyl diphosphate synthase (wild-type enzyme) (Micrococcus luteus, UniProt O82827); experiment: Relative activity of wild-type undecaprenyl diphosphate synthase on initiating substrates; format: biochemical; settings: activity of the enzyme on farnesyl diphosphate as 100; 12.5 μM initiating substrate, pH 7.5, 1 hour, 37° C.
T3 construct: made in house; host or cells: E. coli; plasmid pET22b/MLU-UPS
Description: (§2) Reaction was performed under conditions shown below using each of the initiating substrates prepared in Production Examples 1 to 11 or farnesyl diphosphate. The activity of each variant enzyme on each initiating substrate was indicated by index with the activity of the wild-type enzyme (Micrococcus luteus B-P 26-derived undecaprenyl diphosphate synthase) as 100.
(§3) After the reaction, liquid scintillation counting and TLC quantification were performed to measure the activity of each enzyme.
Next, reaction was performed under conditions shown below using Micrococcus luteus B-P 26-derived undecaprenyl diphosphate synthase as an enzyme and each of the initiating substrates 1 to 4, the compound represented by the formula (B), the compound represented by the formula (C), the compound represented by the formula (G), the compound represented by the formula (K), and farnesyl diphosphate (FPP). […]
as §1

[4] = target: T4, variant enzyme N31A of undecaprenyl diphosphate synthase (Micrococcus luteus, UniProt O82827, N31A); experiment: Relative activity of variant enzyme N31A on initiating substrates; format: biochemical, Micrococcus luteus B-P 26; settings: index, activity of wild-type enzyme on same initiating substrate as 100; 12.5 μM initiating substrate, 1 hour, 37° C.
T4 construct: made in house; host or cells: E. coli; site-directed mutagenesis of pET22b/MLU-UPS
Description: as §2, §3

[5] = target: T5, variant enzyme N77A of undecaprenyl diphosphate synthase (Micrococcus luteus, UniProt O82827, N77A); experiment: Relative activity of variant enzyme N77A on initiating substrates; format: biochemical, Micrococcus luteus B-P 26; settings: index, activity of wild-type enzyme on same initiating substrate as 100; 12.5 μM initiating substrate, 1 hour, 37° C.
T5 construct: made in house; host or cells: E. coli; site-directed mutagenesis of pET22b/MLU-UPS
Description: as §2, §3

[6] = target: T6, variant enzyme L91N of undecaprenyl diphosphate synthase (Micrococcus luteus, UniProt O82827, L91N); experiment: Relative activity of variant enzyme L91N on initiating substrates; format: biochemical, Micrococcus luteus B-P 26; settings: index, activity of wild-type enzyme on same initiating substrate as 100; 12.5 μM initiating substrate, 1 hour, 37° C.
T6 construct: made in house; host or cells: E. coli; site-directed mutagenesis of pET22b/MLU-UPS
Description: as §2, §3

[7] = target: T7, variant enzyme L91D of undecaprenyl diphosphate synthase (Micrococcus luteus, UniProt O82827, L91D); experiment: Relative activity of variant enzyme L91D on initiating substrates; format: biochemical, Micrococcus luteus B-P 26; settings: index, activity of wild-type enzyme on same initiating substrate as 100; 12.5 μM initiating substrate, 1 hour, 37° C.
T7 construct: made in house; host or cells: E. coli; site-directed mutagenesis of pET22b/MLU-UPS
Description: as §2, §3

[8] = target: T8, variant enzyme N77Q of undecaprenyl diphosphate synthase (Micrococcus luteus, UniProt O82827, N77Q); experiment: Relative activity of variant enzyme N77Q on initiating substrates; format: biochemical, Micrococcus luteus B-P 26; settings: index, activity of wild-type enzyme on same initiating substrate as 100; 12.5 μM initiating substrate, 1 hour, 37° C.
T8 construct: made in house; host or cells: E. coli; site-directed mutagenesis of pET22b/MLU-UPS
Description: as §2, §3

[9] = target: T9, variant enzyme L91K of undecaprenyl diphosphate synthase (Micrococcus luteus, UniProt O82827, L91K); experiment: Relative activity of variant enzyme L91K on initiating substrates; format: biochemical, Micrococcus luteus B-P 26; settings: index, activity of wild-type enzyme on same initiating substrate as 100; 12.5 μM initiating substrate, 1 hour, 37° C.
T9 construct: made in house; host or cells: E. coli; site-directed mutagenesis of pET22b/MLU-UPS
Description: as §2, §3

With `CC(C)=CCC/C(C)=C/COP(=O)(O)OP(=O)(O)O` [Geranyldiphosphate, geranyl diphosphate] the “Relative activity (%)” value [1] was 100% and the “Relative activity (%)” value ([2]; activity of the enzyme on geranyl diphosphate as 100) was 100%.
With `CC(C)=CCC/C(C)=C/CC/C(C)=C/CO[P@@](=O)(O)OP(=O)(O)O` (stereo in doubt) [Farnesyl diphosphate, farnesyl diphosphate, reference compound] the “Relative activity (%)” value [3] was 100%, the Relative activity [4] was 123 and the Relative activity [5] was 213. For the same molecule, the Relative activity [6] was 156, the Relative activity [7] was 231 and the Relative activity [8] was 121. The Relative activity [9] was 133 and the “Relative activity (%)” value ([2]; activity of the enzyme on farnesyl diphosphate as 100) was 100%.
